For part of these data: What follows is the remainder of the data, with few or none of the hits. Records with an inconclusive call do not appear. The entries are a selection whose mix differs from that of the whole data set. Activity calls are given as the source filed them. Unless noted, calls follow the shape of the dose curve; as a rule, active = well fitted curve in the direction sought with a large enough effect; inconclusive = small, poorly fitted or top-dose-only effect, or another doubt; inactive = no such curve, though single readings can be large; an effect the other way counts as inactive or inconclusive.
Key:
[1] = Stat Signaling Pathway (AID 446; active = well fitted curve in either direction with a large enough effect, not every such curve was filed as active;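 also: ME-180 cervical cancer cells given 40 pM IL-6 alongside compound; SIE-controlled beta-lactamase reporter measured as 460/530 nm FRET emission ratio; % is scaled to controls: 0 for no effect and ±100 for the full control effect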); details: ME-180 SIE beta-lactamase reporter, IL-6 stimulated, 5 h; at 38 µM (top of the series)
Outline: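 Reporter line: ME-180 cervical carcinoma, SIE-beta-lactamase. Treatment: compound with 40 pM IL-6, 5 hrs, 37 C, in low-serum OPTI-MEM with 10 mM HEPES pH 7.3. Detection: 460/530 nm fluorescence.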

Amino acid sequences for entries named in this document (tags omitted).
UniProt P09958, whole entry, looked up: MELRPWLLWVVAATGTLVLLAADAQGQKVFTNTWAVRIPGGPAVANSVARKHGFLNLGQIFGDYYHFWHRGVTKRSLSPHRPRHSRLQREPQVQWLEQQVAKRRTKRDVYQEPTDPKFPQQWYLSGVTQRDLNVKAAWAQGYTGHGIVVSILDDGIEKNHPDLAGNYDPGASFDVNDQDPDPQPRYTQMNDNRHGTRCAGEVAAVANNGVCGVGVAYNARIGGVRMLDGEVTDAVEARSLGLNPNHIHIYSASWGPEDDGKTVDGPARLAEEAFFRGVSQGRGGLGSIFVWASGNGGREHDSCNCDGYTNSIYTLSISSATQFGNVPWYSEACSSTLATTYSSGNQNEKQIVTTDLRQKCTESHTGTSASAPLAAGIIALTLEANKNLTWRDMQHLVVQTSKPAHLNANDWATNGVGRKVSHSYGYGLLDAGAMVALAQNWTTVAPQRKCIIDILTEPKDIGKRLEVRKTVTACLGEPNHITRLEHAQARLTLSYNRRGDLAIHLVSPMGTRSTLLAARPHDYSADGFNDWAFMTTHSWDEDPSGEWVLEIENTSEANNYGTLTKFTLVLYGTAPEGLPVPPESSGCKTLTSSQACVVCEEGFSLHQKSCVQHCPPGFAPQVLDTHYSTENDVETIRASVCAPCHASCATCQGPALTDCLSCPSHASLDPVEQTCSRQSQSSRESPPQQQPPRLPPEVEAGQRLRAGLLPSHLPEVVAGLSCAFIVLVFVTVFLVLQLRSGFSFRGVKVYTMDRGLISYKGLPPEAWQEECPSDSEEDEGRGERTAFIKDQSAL

[2] = Counterscreen for APE1 Inhibitors: Fluorescent Dye Displacement Validation Assay (AID 1707); details: fluorescent dye displacement from DNA; at 57.1 µM (top of the series);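 also: plate controls were ThO with dsDNA and no compound for no effect and ThO without dsDNA for full effect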
Outline: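 Compounds are scored by their ability to displace Thiazole Orange (250 nM) from a 50 nM TAMRA-tagged duplex bearing a tetrahydrofuran abasic site. Buffer is 50 mM Tris-HCl pH7.5, 50mM NaCl, 2 mM MgCl2, 0.01% Tween-20.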

[3] = qHTS Validation Assay to Find Inhibitors of Chronic Active B-Cell Receptor Signaling (AID 485345; active = well fitted curve in the direction sought with a large enough effect in the main read-out, with a control signal flat, not every such curve was filed as active;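 also: 0% = untreated basal cells and 100% = 10 µM MG-132 proteasome inhibitor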); details: ABC-DLBCL cells, chronic BCR signaling reporter, CBG luciferase; at 46.1 µM (top of the series)
Outline: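 TMD8 ABC-DLBCL cells with dox-inducible green luciferase–IκBα fusion and red native luciferase; compounds 46 uM–3 nM, 4 h at 37C with doxycycline in 0.5% FBS IMDM. Green/red ratio normalized to basal and 10 uM MG-132.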

Furin (Homo sapiens) = Furin (Homo sapiens) (UniProt P09958); assay: Furin counterscreen qHTS for Zika virus inhibitors (AID 1347149); details: furin enzymatic counterscreen, fluorogenic substrate; at 57.5 µM (top of the series);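 also: purified recombinant full-length human furin enzyme at 5 nM; fluorescence gain from furin cutting a BOC-RVRR-AMC peptide substrate over 15 min; top concentration of the series differs between compounds; plate controls were no-inhibitor control for no effect and no-enzyme control for full effect; nearly all actives have a fitted effect of over 70% in size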
Outline: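 Fluorogenic cleavage of BOC-RVRR-AMC (2 microM final, Km ~15 µM) was monitored (ex 340, em 450 nm) at 37C after 15 min RT preincubation of 5 nM furin with compounds in HEPES pH 7.0 buffer with CaCl2 and Triton X-100. Percent inhibition was fitted to a 4-parameter Hill curve.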

[4] = test system: Zika virus NS2B-NS3 protease (linked construct); assay: Confirmatory screen NINDS AMC qHTS for Zika virus inhibitors (AID 1347152); details: Purified linked NS2B-NS3, AMC substrate fluorescence; at 56.6 µM (top of the series);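 also: AMC fluorescence gain from cleaved Bz-Nle-KRR-AMC substrate over 15 min; top concentration of the series differs between compounds; 0% = no-inhibitor control and -100% = no-enzyme control; nearly all actives have a fitted effect of over 70% in size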
Outline: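 Linked NS2B-NS3 (NS2B hydrophilic domain–GGGGSGGGG–NS3 protease), 1 nM final, in 10 mM Tris-HCl pH 8.0, 0.01% Tween 20, preincubated 15 min RT with compound (7.28 nM–114 microM). Bz-Nle-KRR-AMC added at 10 microM (Km 18.3 microM); fluorescence change over 15 min fitted to 4-parameter Hill.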

[5] = test system: Zika virus NS2B-NS3 protease (unlinked complex); assay: Confirmatory screen GU AMC qHTS for Zika virus inhibitors (AID 1347153); details: Recombinant NS2B-NS3 protease, AMC substrate fluorescence; at 57.1 µM (top of the series);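 also: percent inhibition with 0% = no inhibitor control and 100% = no enzyme control; nearly all actives have a fitted effect of over 70% in size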
Outline: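 Compounds were preincubated 15 min at room temperature with 25 nM noncovalent NS2B-NS3 protease at pH 8.0; AMC substrate added at 10 microM and 15-min fluorescence gain (340/450 nm) converted to percent inhibition, fitted 4-parameter.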

[6] = Vero cells viability qHTS for Zika virus inhibitors (AID 1347167); details: cytotoxicity counter-screen (Zika); at 45.9 µM (top of the series); also: % is scaled to controls: 0 for no effect and ±100 for the full control effect
Outline: (§1)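 Counter-screen for cytotoxicity of hits from NS2B-NS3 protease qHTS. Overnight-attached cells (2.5 x 10^5 cells/mL, DMEM/4% FBS) were dosed in titration, incubated 24 to 48 hours, then assayed by CellTiter Glo.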

[7] = HepG2 cells viability qHTS for Zika virus inhibitors (AID 1347168); details: Zika counter-screen; at 45.9 µM (top of the series); also: % is scaled to controls: 0 for no effect and ±100 for the full control effect
Outline: as §1

[8] = Primary qHTS for inhibitors of La Crosse Virus (LACV) - induced cell death in SH-SY5Y cells (AID 1508616); details: SH-SY5Y LACV cytopathicity rescue, ATP luminescence, 6 d; at 9.63 µM (top of the series);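 also: top concentration of the series differs between compounds; 0% = infected DMSO wells and 100% = uninfected DMSO wells; higher means more rescue of cells from virus-induced death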
Outline: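 SH-SY5Y cells (6000/well) plated 24 h, then given compounds by pin transfer and LACV at 0.01 MOI for 6 days at 37C. Viability measured by ATPLite luminescence, normalized to infected DMSO and uninfected DMSO.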

Oc1cc2c(c(Cl)c1O)CCNC[C@H]2c1ccccc1
inactive: activity, negative = inhibition [1] -15.9%

Oc1cc2c(c(Cl)c1O)CCNCC2c1ccccc1 (centres undefined)
inactive: activity change, negative = inhibition [2] 1.93% | activity change [3] -4.89% | activity change, negative = inhibition (Furin (Homo sapiens)) 0.636% | activity change, negative = inhibition [4] -7.92% | activity, negative = inhibition [5] 3.19% | activity change, negative = cytotoxicity [6] -1.97% | activity change, negative = cytotoxicity [7] -11.3% | activity change [8] 18.3%
